From the supplement of paper PMC10849652
The list shows a part of the results.

Chains of the proteins cited; added tags and fusions are not shown. Lines headed by an entry give the natural chain unless they say otherwise; changes in a name come on top.
UniProt Q9UHR4: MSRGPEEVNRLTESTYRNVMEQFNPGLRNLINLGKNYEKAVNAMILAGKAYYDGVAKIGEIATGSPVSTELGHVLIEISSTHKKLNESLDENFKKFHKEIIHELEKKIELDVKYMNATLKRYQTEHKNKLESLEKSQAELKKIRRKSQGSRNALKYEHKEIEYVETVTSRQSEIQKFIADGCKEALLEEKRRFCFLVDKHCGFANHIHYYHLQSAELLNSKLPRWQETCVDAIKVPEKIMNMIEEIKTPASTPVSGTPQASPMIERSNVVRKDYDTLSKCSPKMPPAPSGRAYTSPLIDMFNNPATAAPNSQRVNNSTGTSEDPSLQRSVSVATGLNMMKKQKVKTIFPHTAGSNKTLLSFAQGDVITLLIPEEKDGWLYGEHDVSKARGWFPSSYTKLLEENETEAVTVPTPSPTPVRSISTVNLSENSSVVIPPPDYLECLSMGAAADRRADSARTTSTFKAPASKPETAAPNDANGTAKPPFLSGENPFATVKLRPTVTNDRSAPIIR
UniProt O75531: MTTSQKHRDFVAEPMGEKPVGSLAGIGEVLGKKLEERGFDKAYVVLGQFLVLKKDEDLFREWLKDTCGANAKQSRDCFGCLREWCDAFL
UniProt Q86WA6: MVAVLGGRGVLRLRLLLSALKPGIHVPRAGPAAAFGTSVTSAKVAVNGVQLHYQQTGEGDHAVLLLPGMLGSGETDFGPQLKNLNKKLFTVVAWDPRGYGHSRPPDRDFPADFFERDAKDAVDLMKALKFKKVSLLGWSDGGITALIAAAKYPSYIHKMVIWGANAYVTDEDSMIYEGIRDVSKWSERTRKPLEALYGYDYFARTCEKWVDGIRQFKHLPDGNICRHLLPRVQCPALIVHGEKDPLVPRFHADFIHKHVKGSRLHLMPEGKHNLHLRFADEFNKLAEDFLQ
UniProt Q9NYF8, whole entry, looked up: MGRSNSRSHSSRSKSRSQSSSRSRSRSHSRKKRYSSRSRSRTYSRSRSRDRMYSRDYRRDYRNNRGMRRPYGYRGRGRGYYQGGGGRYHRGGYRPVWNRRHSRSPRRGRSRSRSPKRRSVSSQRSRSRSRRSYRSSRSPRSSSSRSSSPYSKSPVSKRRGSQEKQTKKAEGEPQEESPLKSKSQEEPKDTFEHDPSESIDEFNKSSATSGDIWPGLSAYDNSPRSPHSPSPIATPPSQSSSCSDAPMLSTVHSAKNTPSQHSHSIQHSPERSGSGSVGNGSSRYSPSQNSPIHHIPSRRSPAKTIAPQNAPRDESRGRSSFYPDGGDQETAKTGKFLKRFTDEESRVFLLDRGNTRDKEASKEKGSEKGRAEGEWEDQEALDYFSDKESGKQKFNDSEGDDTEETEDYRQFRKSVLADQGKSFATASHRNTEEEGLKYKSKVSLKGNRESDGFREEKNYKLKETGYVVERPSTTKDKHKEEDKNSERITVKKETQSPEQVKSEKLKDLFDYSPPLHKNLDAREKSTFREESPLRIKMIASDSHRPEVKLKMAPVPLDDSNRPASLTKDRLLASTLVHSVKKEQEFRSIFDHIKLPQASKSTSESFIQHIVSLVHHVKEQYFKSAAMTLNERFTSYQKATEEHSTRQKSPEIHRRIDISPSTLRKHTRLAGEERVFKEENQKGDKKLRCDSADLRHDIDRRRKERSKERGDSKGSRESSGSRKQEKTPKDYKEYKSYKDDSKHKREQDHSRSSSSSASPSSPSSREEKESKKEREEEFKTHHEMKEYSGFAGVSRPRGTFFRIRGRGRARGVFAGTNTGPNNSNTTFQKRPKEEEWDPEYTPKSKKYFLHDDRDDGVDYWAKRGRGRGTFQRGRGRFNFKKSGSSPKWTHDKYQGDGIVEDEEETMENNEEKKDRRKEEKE
UniProt Q9NUP1: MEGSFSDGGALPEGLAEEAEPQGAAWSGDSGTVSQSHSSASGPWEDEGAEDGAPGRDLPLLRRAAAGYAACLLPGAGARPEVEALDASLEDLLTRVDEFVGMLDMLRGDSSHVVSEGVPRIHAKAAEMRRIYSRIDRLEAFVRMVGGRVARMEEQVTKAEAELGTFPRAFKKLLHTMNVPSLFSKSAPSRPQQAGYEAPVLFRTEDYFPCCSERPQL
UniProt P15056, whole entry, looked up: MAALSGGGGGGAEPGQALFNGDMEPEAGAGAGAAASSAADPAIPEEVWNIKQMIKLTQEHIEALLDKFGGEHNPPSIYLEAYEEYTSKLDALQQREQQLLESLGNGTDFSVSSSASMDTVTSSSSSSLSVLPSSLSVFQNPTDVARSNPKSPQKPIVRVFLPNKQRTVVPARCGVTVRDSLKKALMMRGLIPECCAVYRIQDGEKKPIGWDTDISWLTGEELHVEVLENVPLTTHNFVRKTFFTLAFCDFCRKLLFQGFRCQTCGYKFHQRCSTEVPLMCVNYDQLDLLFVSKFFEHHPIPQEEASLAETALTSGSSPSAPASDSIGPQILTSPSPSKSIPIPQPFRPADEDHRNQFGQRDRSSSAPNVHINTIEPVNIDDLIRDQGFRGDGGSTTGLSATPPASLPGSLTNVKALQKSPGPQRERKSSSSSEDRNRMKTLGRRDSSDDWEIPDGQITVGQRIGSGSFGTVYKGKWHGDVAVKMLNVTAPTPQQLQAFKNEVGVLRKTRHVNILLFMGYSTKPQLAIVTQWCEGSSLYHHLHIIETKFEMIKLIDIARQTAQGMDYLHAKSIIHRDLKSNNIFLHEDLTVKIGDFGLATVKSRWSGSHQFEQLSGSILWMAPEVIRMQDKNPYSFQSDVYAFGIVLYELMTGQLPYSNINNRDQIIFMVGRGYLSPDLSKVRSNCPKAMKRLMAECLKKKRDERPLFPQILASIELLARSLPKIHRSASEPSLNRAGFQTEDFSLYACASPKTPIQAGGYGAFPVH
UniProt Q92560: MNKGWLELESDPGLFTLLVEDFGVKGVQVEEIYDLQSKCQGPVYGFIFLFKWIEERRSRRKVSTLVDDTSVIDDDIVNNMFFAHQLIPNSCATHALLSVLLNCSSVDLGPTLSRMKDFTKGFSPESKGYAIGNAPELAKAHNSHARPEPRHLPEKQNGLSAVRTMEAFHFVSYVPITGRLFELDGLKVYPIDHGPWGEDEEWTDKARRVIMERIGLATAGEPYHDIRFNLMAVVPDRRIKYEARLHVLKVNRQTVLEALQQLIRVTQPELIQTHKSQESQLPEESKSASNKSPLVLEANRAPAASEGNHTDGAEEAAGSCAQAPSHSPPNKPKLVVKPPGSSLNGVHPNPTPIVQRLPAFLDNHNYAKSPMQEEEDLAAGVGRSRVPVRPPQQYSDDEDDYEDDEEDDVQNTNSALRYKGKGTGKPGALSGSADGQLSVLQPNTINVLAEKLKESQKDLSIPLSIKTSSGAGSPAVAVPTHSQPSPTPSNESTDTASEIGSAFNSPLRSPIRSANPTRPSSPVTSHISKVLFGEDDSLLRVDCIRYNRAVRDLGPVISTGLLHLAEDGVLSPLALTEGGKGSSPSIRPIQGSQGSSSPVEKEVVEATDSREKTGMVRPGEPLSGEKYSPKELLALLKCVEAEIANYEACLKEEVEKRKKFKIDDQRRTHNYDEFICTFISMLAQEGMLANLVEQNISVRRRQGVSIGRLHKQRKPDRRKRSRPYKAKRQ
UniProt Q9NQS1: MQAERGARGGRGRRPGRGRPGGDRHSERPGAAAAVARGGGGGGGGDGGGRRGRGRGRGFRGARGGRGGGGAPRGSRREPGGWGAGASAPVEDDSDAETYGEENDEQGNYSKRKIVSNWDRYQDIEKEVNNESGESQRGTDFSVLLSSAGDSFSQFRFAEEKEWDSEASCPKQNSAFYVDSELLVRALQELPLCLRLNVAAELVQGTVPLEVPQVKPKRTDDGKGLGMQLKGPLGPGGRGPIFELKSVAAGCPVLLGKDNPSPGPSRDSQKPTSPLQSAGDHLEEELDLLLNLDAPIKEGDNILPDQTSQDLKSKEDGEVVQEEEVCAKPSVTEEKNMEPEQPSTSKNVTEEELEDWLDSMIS
UniProt P30043: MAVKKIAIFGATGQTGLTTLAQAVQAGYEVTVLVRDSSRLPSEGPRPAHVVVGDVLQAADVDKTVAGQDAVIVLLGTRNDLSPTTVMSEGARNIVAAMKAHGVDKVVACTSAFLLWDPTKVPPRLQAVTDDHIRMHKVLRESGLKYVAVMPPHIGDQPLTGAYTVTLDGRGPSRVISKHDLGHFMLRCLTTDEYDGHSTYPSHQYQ
UniProt Q14137: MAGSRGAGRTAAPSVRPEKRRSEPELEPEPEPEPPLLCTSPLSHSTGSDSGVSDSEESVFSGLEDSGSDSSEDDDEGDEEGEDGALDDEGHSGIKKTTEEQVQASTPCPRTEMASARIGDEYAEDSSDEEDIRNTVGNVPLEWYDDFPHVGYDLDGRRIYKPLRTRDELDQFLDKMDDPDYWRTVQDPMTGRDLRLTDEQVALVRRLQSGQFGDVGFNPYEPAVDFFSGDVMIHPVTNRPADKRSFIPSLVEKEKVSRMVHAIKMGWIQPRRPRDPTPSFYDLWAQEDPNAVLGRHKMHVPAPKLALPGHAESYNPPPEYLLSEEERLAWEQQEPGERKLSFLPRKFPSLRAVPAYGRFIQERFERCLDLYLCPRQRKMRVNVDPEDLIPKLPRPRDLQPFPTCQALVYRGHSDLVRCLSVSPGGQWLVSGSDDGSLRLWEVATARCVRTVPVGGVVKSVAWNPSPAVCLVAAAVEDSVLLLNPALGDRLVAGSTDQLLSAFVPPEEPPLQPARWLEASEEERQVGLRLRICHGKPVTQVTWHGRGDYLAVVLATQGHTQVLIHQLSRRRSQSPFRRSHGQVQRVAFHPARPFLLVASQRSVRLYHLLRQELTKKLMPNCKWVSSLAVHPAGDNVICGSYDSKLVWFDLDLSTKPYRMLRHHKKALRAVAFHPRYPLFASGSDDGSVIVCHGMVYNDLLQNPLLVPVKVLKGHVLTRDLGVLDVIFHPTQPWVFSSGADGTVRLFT
UniProt Q9H6U6: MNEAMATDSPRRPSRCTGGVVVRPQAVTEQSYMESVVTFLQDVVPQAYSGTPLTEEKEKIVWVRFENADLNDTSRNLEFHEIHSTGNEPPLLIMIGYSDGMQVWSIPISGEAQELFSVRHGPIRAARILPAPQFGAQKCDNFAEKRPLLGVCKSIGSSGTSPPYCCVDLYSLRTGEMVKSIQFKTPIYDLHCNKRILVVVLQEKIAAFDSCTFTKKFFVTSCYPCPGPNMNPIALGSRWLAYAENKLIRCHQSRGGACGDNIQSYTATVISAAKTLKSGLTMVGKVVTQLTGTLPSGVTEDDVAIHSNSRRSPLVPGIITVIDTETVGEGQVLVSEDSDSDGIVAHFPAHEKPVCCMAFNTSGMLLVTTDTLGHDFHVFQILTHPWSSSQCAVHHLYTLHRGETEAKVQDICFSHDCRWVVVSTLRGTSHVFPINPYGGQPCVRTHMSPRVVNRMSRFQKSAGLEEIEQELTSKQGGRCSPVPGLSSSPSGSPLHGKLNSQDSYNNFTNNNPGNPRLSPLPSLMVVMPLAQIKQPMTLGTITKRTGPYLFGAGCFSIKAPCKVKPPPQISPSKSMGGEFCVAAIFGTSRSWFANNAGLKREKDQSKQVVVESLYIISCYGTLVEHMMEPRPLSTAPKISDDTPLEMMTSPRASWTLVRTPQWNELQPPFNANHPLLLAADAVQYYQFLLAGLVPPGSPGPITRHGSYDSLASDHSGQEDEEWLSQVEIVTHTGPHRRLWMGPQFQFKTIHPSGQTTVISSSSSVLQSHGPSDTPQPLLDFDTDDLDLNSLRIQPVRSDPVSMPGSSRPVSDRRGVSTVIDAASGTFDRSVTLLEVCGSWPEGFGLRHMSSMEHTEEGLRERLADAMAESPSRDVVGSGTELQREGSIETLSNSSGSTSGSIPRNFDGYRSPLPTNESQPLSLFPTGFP
UniProt Q9BXH1: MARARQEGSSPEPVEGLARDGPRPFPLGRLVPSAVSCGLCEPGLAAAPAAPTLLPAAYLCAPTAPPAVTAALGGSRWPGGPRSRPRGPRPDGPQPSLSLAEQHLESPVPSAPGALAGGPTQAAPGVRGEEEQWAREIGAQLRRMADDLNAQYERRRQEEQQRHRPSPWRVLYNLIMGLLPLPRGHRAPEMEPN
UniProt Q9BQE9, whole entry, looked up: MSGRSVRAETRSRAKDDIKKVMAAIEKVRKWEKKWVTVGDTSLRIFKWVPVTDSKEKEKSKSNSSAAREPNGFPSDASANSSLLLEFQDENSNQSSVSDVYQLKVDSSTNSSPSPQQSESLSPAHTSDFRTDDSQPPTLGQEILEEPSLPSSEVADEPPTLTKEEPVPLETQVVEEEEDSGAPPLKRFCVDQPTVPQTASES
UniProt Q93088: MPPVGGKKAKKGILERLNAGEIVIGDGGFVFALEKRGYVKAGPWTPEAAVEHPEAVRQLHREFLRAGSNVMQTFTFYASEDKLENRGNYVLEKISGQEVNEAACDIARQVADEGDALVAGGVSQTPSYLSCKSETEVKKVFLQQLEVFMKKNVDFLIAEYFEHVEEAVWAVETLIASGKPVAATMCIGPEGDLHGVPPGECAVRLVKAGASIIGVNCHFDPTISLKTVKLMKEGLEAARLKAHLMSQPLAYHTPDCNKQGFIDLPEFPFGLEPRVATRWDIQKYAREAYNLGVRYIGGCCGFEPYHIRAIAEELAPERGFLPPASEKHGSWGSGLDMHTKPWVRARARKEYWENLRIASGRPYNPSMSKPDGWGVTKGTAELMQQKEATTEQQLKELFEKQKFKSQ

Key:
Assay in all cases: log2 fold change, soluble protein after heating vs DMSO (PISA); higher = thermal stabilisation; K562 cells, 10 uM, 30 min; active = over 0.2 and 3.5 SD of the protein, either way, in both replicates (recomputed)
saracatinib = compound: CN1CCN(CCOc2cc(OC3CCOCC3)c3c(Nc4c(Cl)ccc5c4OCO5)ncnc3c2)CC1 [saracatinib]
How it was run: (§1)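 Values are thermal stability changes relative to control samples and are taken from duplicates. They are stated as log2 fold changes. Before quantification by TMTpro 16plex LC-MS/MS with equalised channel sums, K562 cells at 2×10^6 cells/mL were treated with 10 μM compound for 30 min, heated in aliquots for 3 min across 48°C-58°C, pooled, extracted in PBS with 0.5% NP-40 at 4°C, and centrifuged at 21,000xg for 90 min to give the soluble supernatant.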

sotrastaurin = compound: CN1CCN(c2nc(C3=C(c4c[nH]c5ccccc45)C(=O)NC3=O)c3ccccc3n2)CC1 [sotrastaurin]
How it was run: as §1

alvocidib = compound: CN1CC[C@H](c2c(O)cc(O)c3c(=O)cc(-c4ccccc4Cl)oc23)[C@H](O)C1 [alvocidib]
How it was run: as §1

Tubastatin A = compound: CN1CCc2c(c3ccccc3n2Cc2ccc(C(=O)NO)cc2)C1 [Tubastatin A]
How it was run: as §1

[1] = compound: CNC(=O)C1=CC=CC=C1NC2=NC(=NC=C2Cl)NC3=C(C=C(C=C3)N4CCOCC4)OC
How it was run: as §1

defactinib = compound: CNC(=O)c1ccc(Nc2ncc(C(F)(F)F)c(NCc3nccnc3N(C)S(C)(=O)=O)n2)cc1 [defactinib]
How it was run: as §1

rucaparib = compound: CNCc1ccc(-c2[nH]c3cc(F)cc4c3c2CCNC4=O)cc1 [rucaparib]
How it was run: as §1

[2] = compound: CNc1nc(-c2ccc3c(N)n[nH]c3c2)cc(N2C[C@@H](C(=O)NC3CCCCC3)CC[C@H]2C)n1
How it was run: as §1

encorafenib = compound: COC(=O)N[C@@H](C)CNc1nccc(-c2cn(C(C)C)nc2-c2cc(Cl)cc(NS(C)(=O)=O)c2F)n1 [encorafenib]
How it was run: as §1

[3] = compound: COC(=O)[C@H](CCSC)NC(=O)C1=C(C=C(C=C1)NC[C@H](CS)N)C2=CC=CC=C2
How it was run: as §1

Measured: log2 fold change

BAIAP2L1 (UniProt Q9UHR4)
inactive: saracatinib 0.031 | sotrastaurin 0.022 | alvocidib -0.047 | Tubastatin A -0.006 | [1] -0.008 | defactinib -0.053 | rucaparib 0 | [2] -0.011 | encorafenib -0.009 | [3] 0.003

BANF1 (UniProt O75531)
inactive: saracatinib -0.047 | sotrastaurin 0.057 | alvocidib -0.032 | Tubastatin A 0.018 | [1] 0.053 | defactinib 0.066 | rucaparib -0.037 | [2] 0.057 | encorafenib -0.057 | [3] -0.007

BPHL (UniProt Q86WA6)
inactive: saracatinib 0.056 | sotrastaurin 0.019 | Tubastatin A -0.259 | [1] 0.025 | defactinib -0.014 | rucaparib 0.069 | [2] 0.006 | encorafenib -0.012 | [3] -0.017

BCLAF1 (UniProt Q9NYF8)
inactive: saracatinib -0.033 | sotrastaurin 0.039 | Tubastatin A 0.184 | [1] -0.275 | defactinib -0.382 | rucaparib 0.017 | [2] -0.057 | encorafenib 0.013 | [3] -0.028

ATXN2 (UniProt F8W0B5)
inactive: saracatinib -0.076 | sotrastaurin 0.038 | alvocidib 0.152 | [1] -0.019 | rucaparib -0.006 | [2] 0.05 | encorafenib -0.034

BLOC1S4 (UniProt Q9NUP1)
inactive: saracatinib 0.028 | sotrastaurin 0.022 | alvocidib -0.005 | Tubastatin A 0.004 | [1] -0.099 | defactinib -0.054 | rucaparib 0.059 | [2] -0.005 | encorafenib -0.065 | [3] -0.049

BLMH (UniProt Q13867)
inactive: saracatinib -0.029 | sotrastaurin 0.022 | alvocidib -0.018 | Tubastatin A -0.008 | [1] 0.028 | defactinib -0.031 | rucaparib -0.041 | [2] -0.076 | encorafenib 0.006 | [3] 0.081

BRAF (UniProt P15056)
inactive: saracatinib 0.029 | sotrastaurin -0.069 | Tubastatin A 0.007 | [1] -0.02 | defactinib -0.058 | rucaparib 0.013 | [2] -0.059 | encorafenib 0.014 | [3] -0.037

BAP1 (UniProt Q92560)
inactive: saracatinib -0.091 | sotrastaurin 0.089 | Tubastatin A 0.042 | [1] -0.1 | defactinib 0.09 | rucaparib 0.037 | [2] 0.061 | encorafenib 0.014 | [3] -0.017

B4GAT1 (UniProt O43505)
inactive: saracatinib 0.169 | alvocidib -0.022 | Tubastatin A -0.121 | [1] -0.026 | defactinib 0.017 | rucaparib 0.139 | [2] -0.053 | encorafenib -0.251 | [3] 0.067

AVEN (UniProt Q9NQS1)
inactive: saracatinib 0.016 | alvocidib 0.137 | [1] -0.088 | defactinib -0.037 | rucaparib -0.002 | [2] -0.055 | encorafenib -0.175 | [3] 0.054

BORCS7 (UniProt Q96B45)
inactive: saracatinib 0.164 | alvocidib -0.007 | Tubastatin A -0.114 | [1] -0.001 | defactinib 0.015 | rucaparib -0.006 | [2] -0.064 | encorafenib -0.045 | [3] -0.095

BLVRB (UniProt P30043)
inactive: saracatinib 0.101 | sotrastaurin -0.047 | Tubastatin A -0.002 | [1] 0.058 | defactinib -0.045 | rucaparib 0.043 | [2] 0.061 | encorafenib -0.007 | [3] -0.003

BRD8 isoform 2 (UniProt Q9H0E9)
inactive: saracatinib -0.06 | sotrastaurin 0.058 | Tubastatin A -0.296 | [1] 0 | defactinib -0.064 | rucaparib -0.015 | [2] -0.021 | encorafenib 0.028 | [3] 0.145

BRMS1 (UniProt Q9HCU9)
inactive: saracatinib -0.185 | Tubastatin A 0.001 | rucaparib -0.017 | [2] 0.007 | encorafenib 0.106

AUH (UniProt Q13825)
inactive: saracatinib 0.184 | Tubastatin A 0.152 | [1] 0.003 | defactinib -0.055 | rucaparib 0.065 | [2] -0.062 | encorafenib -0.005 | [3] 0.006

BRD2 isoform 2 (UniProt P25440)
inactive: saracatinib 0 | sotrastaurin -0.172 | Tubastatin A -0.37 | [1] 0.146 | defactinib -0.125 | [2] 0.255 | [3] -0.074

BDH2 (UniProt Q9BUT1)
inactive: saracatinib -0.088 | sotrastaurin 0 | [1] -0.061 | defactinib -0.021 | [2] 0.015 | [3] -0.039

BOP1 (UniProt Q14137)
inactive: saracatinib 0.011 | sotrastaurin -0.043 | Tubastatin A -0.013 | [1] 0.015 | defactinib -0.157 | rucaparib 0.066 | [2] -0.016 | encorafenib 0.155 | [3] 0.046

BLVRA (UniProt C9J1E1)
inactive: saracatinib -0.054 | alvocidib 0.138 | [1] 0.054 | defactinib 0.021 | [2] -0.039 | [3] 0.135

BCAS3 isoform 8 (UniProt Q9H6U6)
inactive: saracatinib 0.052 | alvocidib 0.016 | Tubastatin A -0.136 | [1] -0.001 | rucaparib 0.038 | [2] 0.073 | encorafenib -0.148

BRK1 isoform 2 (UniProt Q8WUW1)
inactive: saracatinib 0.036 | sotrastaurin 0.007 | Tubastatin A 0.037 | [1] -0.011 | defactinib -0.074 | rucaparib -0.05 | [2] -0.03 | encorafenib -0.063 | [3] -0.018

ATR (UniProt Q13535)
inactive: saracatinib -0.044 | sotrastaurin -0.013 | Tubastatin A 0.02 | [1] 0.014 | defactinib -0.035 | rucaparib 0.008 | [2] 0.039 | encorafenib 0.008 | [3] -0.024

BPTF (UniProt Q12830)
inactive: saracatinib -0.152 | sotrastaurin 0.085 | [1] 0.23 | [2] -0.27

AURKA (UniProt O14965)
inactive: saracatinib -0.019 | sotrastaurin -0.02 | Tubastatin A 0.011 | rucaparib 0.073 | [2] 0.201 | encorafenib 0.033 | [3] 0.071
active: [1] 0.974 | defactinib 0.722

BRD8 (UniProt Q9H0E9)
inactive: saracatinib 0.004 | sotrastaurin -0.001 | Tubastatin A -0.097 | [1] -0.017 | defactinib -0.047 | rucaparib -0.012 | [2] -0.08 | encorafenib -0.027 | [3] -0.009

BBC3 (UniProt Q9BXH1)
inactive: saracatinib 0.005 | alvocidib -0.04 | Tubastatin A 0.001 | [1] -0.077 | defactinib -0.024 | rucaparib -0.028 | [2] -0.084 | encorafenib -0.136 | [3] -0.055

BCL7B (UniProt Q9BQE9)
inactive: saracatinib 0.012 | alvocidib 0.209 | defactinib -0.047 | [2] 0.139 | [3] 0.209

BHMT (UniProt Q93088)
inactive: saracatinib 0.346 | sotrastaurin 0.024 | [2] -0.143

BMP2K (UniProt Q9NSY1)
inactive: saracatinib 0.071 | sotrastaurin 0.023 | Tubastatin A 0.015 | [1] 0.183 | defactinib 0.179 | rucaparib 0.064 | [2] -0.029 | encorafenib -0.069 | [3] -0.012

BCL2L12 (UniProt Q9HB09)
inactive: saracatinib 0.055 | alvocidib -0.168 | [1] 0.013 | defactinib -0.002 | rucaparib -0.008 | [2] -0.045 | encorafenib 0.104 | [3] 0.066

Two successive records already listed, quoted:
BOP1 (UniProt Q14137)
inactive: saracatinib 0.011 | sotrastaurin -0.043 | Tubastatin A -0.013 | [1] 0.015 | defactinib -0.157 | rucaparib 0.066 | [2] -0.016 | encorafenib 0.155 | [3] 0.046

BLVRA (UniProt C9J1E1)
inactive: saracatinib -0.054 | alvocidib 0.138 | [1] 0.054 | defactinib 0.021 | [2] -0.039 | [3] 0.135

Carrying on:

AUNIP isoform 2 (UniProt Q9H7T9)
inactive: saracatinib -0.007 | sotrastaurin -0.085 | Tubastatin A 0.278 | [1] 0.189 | defactinib 0.043 | [2] -0.086 | [3] 0.342
